# Where “and” joins values, the source holds several entries; their conditions need not be identical. Identical values can stand only once. Counter-ions that a name gives are not always drawn. ± gives the standard deviation of the averaged measurements. Some of the results follow. Baselines shift from plate to plate; read single values as rough.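 Assay uses culture-activated primary human stellate myofibroblasts; lipid droplet recovery indicates inactivation. Measured: proportion of Hoechst-counted cells over a plate-specific Bodipy cutoff, duplicate wells, DMSO and nortriptyline as per-plate negative and positive controls. A hit scores, control-normalized, above the plate's top-tenth-percentile nortriptyline wells or ranks among its three best wells. Final well concentrations not reported.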
# Test system: primary human hepatic stellate cells (donor 1)
# Assay: percent Bodipy-positive cells; higher = more lipid droplet accumulation
# Conditions: 48 h
# [1] = library stock concentration: 3.33 mM
# [2] = library stock concentration: 10 mM
# [3] = library stock concentration: 1 mM
smiles,measurement,setting,value
COC(=O)N[C@H](C(=O)N[C@@H](Cc1ccccc1)[C@@H](O)CN(Cc1ccc(-c2ccccn2)cc1)NC(=O)[C@@H](NC(=O)OC)C(C)(C)C)C(C)(C)C [Atazanavir Sulfate],percent Bodipy-positive cells,[1],5.56 ± 2.3%
same,percent Bodipy-positive cells,[2],10.2 ± 6.8%
COC(=O)N[C@H](C(=O)N[C@@H](Cc1ccccc1)[C@@H](O)CN(Cc1ccc(-c2ccccn2)cc1)NC(=O)[C@@H](NC(=O)OC)C(C)(C)C)C(C)(C)C [Atazanavir],percent Bodipy-positive cells,library stock concentration: 2.8 mM,5.4 ± 0.31%
CC/C=C\C/C=C\C/C=C\C/C=C\CCCCCCC(=O)OCC [.omega.-3 Arachidonic Acid ethyl ester],percent Bodipy-positive cells,[3],9.25 ± 0.47%
N.N.O=C([O-])C[O-].[Pt+2] [Nedaplatin],percent Bodipy-positive cells,library stock concentration: 6.6 mM,4.92 ± 1.2%
CC(=O)Oc1ccccc1C(=O)Oc1ccccc1C(=O)O [Acetylsalicylsalicylic acid],percent Bodipy-positive cells,,29 ± 9%
O=c1ncc(F)c[nH]1 [5-fluoro-2-pyrimidone],percent Bodipy-positive cells,[2],7.7 ± 2.8%
CC1(C)[C@H]2CC[C@@]1(C)C(=O)C2 [1r-camphor],percent Bodipy-positive cells,[2],12.1 ± 1.9%
CCCCNc1cc(C(=O)O)cc(S(N)(=O)=O)c1Oc1ccccc1 [Bumetanide],percent Bodipy-positive cells,,42.7 ± 18%
same,percent Bodipy-positive cells,[1],10.2 ± 2.7%
C[C@H](Cn1cnc2c(N)ncnc21)OCP(=O)(O)O,percent Bodipy-positive cells,[2],34.4 ± 4.5%
CNC(=O)c1c(I)c(C(=O)NCC(=O)Nc2c(I)c(C(=O)O)c(I)c(C(=O)NCCO)c2I)c(I)c(N(C)C(C)=O)c1I [Ioxaglic acid],percent Bodipy-positive cells,,6.51 ± 1.1%
Fc1ccc2[nH]c(CN3CCN(c4ccccn4)CC3)cc2c1,percent Bodipy-positive cells,[2],22.1 ± 0.42%
O=c1ccn([C@@H]2O[C@H](CO)[C@@H](O)[C@H]2O)c(=O)[nH]1 [Uridine],percent Bodipy-positive cells,[1],9.5 ± 8.2%
same,percent Bodipy-positive cells,[2],11.1 ± 1.7%
COc1ccc2[nH]c(-c3ccccc3)c(CCNC(C)=O)c2c1 [2-Phenylmelatonin],percent Bodipy-positive cells,[2],6.87 ± 0.19%
CC(C)(C)c1ccc(C(=O)CCCN2CCC(OC(c3ccccc3)c3ccccc3)CC2)cc1 [Ebastine],percent Bodipy-positive cells,[2],100%
CCCCCC(O)c1cccc(OCc2ccc3ccccc3n2)c1 (centres undefined),percent Bodipy-positive cells,[3],8.39% and 14.9%
CCCCC/C=C\C/C=C\CCCCCCCCCC(=O)O [Eicosadienoic acid (20:2 n-6)],percent Bodipy-positive cells,[3],6.43 ± 2.8%
CS(=O)(=O)O.N=C(N)SCCc1ccc(OCc2ccc([N+](=O)[O-])cc2)cc1 [KB-R7943 mesylate],percent Bodipy-positive cells,[2],91.77 ± 0.48%
CC(C)n1c(/C=C/C(O)CC(O)CC(=O)O)c(-c2ccc(F)cc2)c2ccccc21 (centres undefined) [fluvastatin],percent Bodipy-positive cells,[2],87.4 ± 7.7%
CC(C)n1c(/C=C/C(O)CC(O)CC(=O)O)c(-c2ccc(F)cc2)c2ccccc21 (centres undefined) [Fluvastatin sodium salt],percent Bodipy-positive cells,,38.2 ± 0.49%
CC(C)n1c(/C=C/C(O)CC(O)CC(=O)O)c(-c2ccc(F)cc2)c2ccccc21 (centres undefined) [Fluvastatin Sodium],percent Bodipy-positive cells,[1],34 ± 16%
same,percent Bodipy-positive cells,[2],36.5 ± 4%
CC(=O)CCCCn1cnc2c1c(=O)n(C)c(=O)n2C,percent Bodipy-positive cells,[2],6.67 ± 0.22%
O=C1CCC[C@@H]2[C@H]3CCC[N+]4([O-])CCC[C@@H](CN12)[C@@H]34 (some centres undefined) [Oxymatrine],percent Bodipy-positive cells,[1],10.1 ± 1.7%
same,percent Bodipy-positive cells,[2],15.6 ± 0.35%
COC(=O)C(Cc1ccc(OCCn2c(=O)sc3cc(C(=O)c4ccccc4)ccc32)cc1)C(=O)OC,percent Bodipy-positive cells,[2],7.58 ± 4.1%
CCCCC/C=C\C/C=C\CCCCCCCC(=O)NCC(=O)O [N-linoleoylglycine],percent Bodipy-positive cells,[3],9.09 ± 8%
CS(=O)(=O)O.Cc1ccc(NC(=O)c2ccc(CN3CCN(C)CC3)cc2)cc1Nc1nccc(-c2cccnc2)n1,percent Bodipy-positive cells,[2],75.2 ± 12%
COc1cccc2cc(-c3nc([C@H]4CC[C@H](C(=O)O)CC4)n4ncnc(N)c34)[nH]c12,percent Bodipy-positive cells,library stock concentration: 80 uM,9.32 ± 4.1%
same,percent Bodipy-positive cells,library stock concentration: 400 uM,4.64 ± 1.5%
same,percent Bodipy-positive cells,library stock concentration: 2 mM,6.21 ± 5.7%
same,percent Bodipy-positive cells,[1],3.2 ± 1.6%
same,percent Bodipy-positive cells,[2],10.4% and 8.78%
Clc1ccc(C(Cn2ccnc2)OCc2ccc(Sc3ccccc3)cc2)c(Cl)c1 (centres undefined) [Fenticonazole Nitrate],percent Bodipy-positive cells,[1],14.7 ± 6.1%
same,percent Bodipy-positive cells,[2],87.1 ± 5.2%
CC[C@H](C)C(=O)O[C@H]1C[C@@H](C)C=C2C=C[C@H](C)[C@H](CC[C@@H]3C[C@@H](O)CC(=O)O3)[C@H]21 [Lovastatin],percent Bodipy-positive cells,,54.98 ± 0.3%
same,percent Bodipy-positive cells,[1],18.6 ± 6.6%
same,percent Bodipy-positive cells,library stock concentration: 4.9 mM,23.7% and 20.2%
Cc1c(C)c2c(c(C)c1O)CCC(C)(C(=O)O)O2 (centres undefined) [Trolox],percent Bodipy-positive cells,,21.8 ± 2.8%
CCCCCCCCCCCCCCCC(=O)OCC(COP(=O)(O)O)OC(=O)CCCCCCCCCCCCCCC (centres undefined) [Dipalmitoylphosphatidic acid],percent Bodipy-positive cells,[3],11.5 ± 10%
CC(C)=CCC/C(C)=C/CC/C(C)=C/CC/C(C)=C/CC/C(C)=C/CC/C(C)=C/CC1=C(C)C(=O)c2ccccc2C1=O [Vitamin K2],percent Bodipy-positive cells,,3.82 ± 1.8%
CCN(CC)CCOC(=O)c1ccc(N)cc1 [Procaine hydrochloride],percent Bodipy-positive cells,,41.8 ± 0.45%
same,percent Bodipy-positive cells,library stock concentration: 7.3 mM,15.2 ± 2.3%
same,percent Bodipy-positive cells,[2],13.7% and 10.1%
CCN(CC)CCOC(=O)c1ccc(N)cc1 [Procaine HCl],percent Bodipy-positive cells,[1],10.6 ± 2.8%
same,percent Bodipy-positive cells,[2],28.3 ± 9.3%
Cn1ccnc1 [1-Methylimidazole],percent Bodipy-positive cells,[2],44.6 ± 2.7%
CC1(c2ccccc2)OC(C(=O)O)=CC1=O (centres undefined) [Acifran],percent Bodipy-positive cells,[2],7.8 ± 3.1%
O=c1[nH]c2cc(C(F)(F)F)ccc2n1-c1cc(C(F)(F)F)ccc1O,percent Bodipy-positive cells,[2],55.4 ± 0.33%
same,percent Bodipy-positive cells,library stock concentration: 13.8 mM,20 ± 4.6%
COc1cc(C2Oc3cc([C@H]4Oc5cc(O)cc(O)c5C(=O)[C@@H]4O)ccc3OC2CO)ccc1O (some centres undefined) [Silibinin],percent Bodipy-positive cells,[1],8.22 ± 1.8%
same,percent Bodipy-positive cells,[2],9.78% and 32.4%

# Reference: the supplement of paper PMC9135407
